According to paper PMC5516760:
These are yes or no findings as the source states them, for the method shown. In cells and extracts the contact can be indirect. Some results given as binding are weak or reduced against the parent protein; the word gives no strength.

Sequences of proteins named here, by UniProt entry; tags and fusion partners are left off. Residues count along the entry.
UniProt O35964: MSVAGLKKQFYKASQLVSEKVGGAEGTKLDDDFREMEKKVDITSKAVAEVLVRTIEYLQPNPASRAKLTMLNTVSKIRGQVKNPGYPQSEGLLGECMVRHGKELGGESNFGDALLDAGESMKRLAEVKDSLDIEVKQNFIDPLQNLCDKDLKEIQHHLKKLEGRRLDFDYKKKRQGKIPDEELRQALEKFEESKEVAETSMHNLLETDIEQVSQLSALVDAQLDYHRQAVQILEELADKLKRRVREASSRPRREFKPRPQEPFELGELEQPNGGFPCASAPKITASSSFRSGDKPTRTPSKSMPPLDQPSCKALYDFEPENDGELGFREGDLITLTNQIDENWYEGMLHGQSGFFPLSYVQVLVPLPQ
UniProt P19490, residues 19-907: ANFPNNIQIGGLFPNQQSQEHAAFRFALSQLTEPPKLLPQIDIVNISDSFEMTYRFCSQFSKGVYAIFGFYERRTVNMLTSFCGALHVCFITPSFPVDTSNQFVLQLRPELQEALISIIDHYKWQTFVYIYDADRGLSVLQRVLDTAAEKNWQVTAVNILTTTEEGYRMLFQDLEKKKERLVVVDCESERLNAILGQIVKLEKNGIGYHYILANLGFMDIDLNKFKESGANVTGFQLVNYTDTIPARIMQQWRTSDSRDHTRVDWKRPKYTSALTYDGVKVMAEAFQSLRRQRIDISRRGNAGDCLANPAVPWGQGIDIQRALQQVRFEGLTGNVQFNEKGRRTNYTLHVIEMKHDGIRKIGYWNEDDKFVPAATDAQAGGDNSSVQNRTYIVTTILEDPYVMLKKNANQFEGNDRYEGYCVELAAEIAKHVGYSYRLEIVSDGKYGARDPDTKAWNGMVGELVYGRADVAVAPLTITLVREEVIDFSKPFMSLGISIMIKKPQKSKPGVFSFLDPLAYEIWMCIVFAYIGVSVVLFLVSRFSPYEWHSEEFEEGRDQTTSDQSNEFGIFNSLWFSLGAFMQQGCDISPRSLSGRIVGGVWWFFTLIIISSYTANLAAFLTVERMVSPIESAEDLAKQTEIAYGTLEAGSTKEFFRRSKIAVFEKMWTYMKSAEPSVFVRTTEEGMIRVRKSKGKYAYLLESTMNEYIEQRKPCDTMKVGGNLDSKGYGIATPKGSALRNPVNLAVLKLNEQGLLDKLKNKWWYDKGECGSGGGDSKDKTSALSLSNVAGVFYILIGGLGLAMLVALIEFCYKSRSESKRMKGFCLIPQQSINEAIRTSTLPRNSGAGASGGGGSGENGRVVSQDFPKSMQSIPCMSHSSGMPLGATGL
UniProt P19491, residues 22-883: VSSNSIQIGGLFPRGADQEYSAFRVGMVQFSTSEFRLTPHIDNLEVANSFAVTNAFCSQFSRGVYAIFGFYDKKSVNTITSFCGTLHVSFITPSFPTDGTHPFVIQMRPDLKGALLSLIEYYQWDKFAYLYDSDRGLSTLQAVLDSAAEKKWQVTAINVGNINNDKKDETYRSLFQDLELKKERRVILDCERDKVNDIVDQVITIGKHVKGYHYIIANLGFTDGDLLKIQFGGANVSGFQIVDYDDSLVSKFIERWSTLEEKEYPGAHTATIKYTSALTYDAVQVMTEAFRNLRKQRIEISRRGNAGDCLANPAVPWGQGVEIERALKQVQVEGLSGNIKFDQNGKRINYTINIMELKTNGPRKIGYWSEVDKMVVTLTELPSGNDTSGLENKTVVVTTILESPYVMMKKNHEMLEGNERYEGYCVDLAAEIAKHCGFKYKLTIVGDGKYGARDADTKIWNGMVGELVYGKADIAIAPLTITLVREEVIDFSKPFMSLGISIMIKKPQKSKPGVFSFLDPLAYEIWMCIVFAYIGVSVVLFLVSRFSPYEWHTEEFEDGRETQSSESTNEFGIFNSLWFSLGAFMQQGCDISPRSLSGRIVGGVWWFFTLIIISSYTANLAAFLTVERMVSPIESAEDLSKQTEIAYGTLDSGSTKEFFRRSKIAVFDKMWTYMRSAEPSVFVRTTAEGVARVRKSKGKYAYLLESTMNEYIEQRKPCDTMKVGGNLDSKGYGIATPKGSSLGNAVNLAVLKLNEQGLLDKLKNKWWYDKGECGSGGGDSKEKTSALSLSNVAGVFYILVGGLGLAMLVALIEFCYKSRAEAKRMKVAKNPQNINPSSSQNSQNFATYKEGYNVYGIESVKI

Key:
[1] = target: endophilin2, endogenous (rat (endogenous in Sprague Dawley rat brain)) (UniProt O35964); test: co-IP; lysates of 1-month-old SD rat brain precipitated with endophilin2 antibody (normal IgG as control), Western blot with GluA1 antibody
GST-endophilin2 = GST-endophilin2 (UniProt O35964); test: pull-down; about 5 μg GST-fused protein on glutathione agarose beads incubated with 300 μg 1-month-old SD rat brain protein for 8 h at 4°C; 100 mM NaCl, 20 mM Tris HCl, 5% glycerol, pH 7.0, 1% Triton X-100, protease inhibitors; Western blot with anti-GluA1 and anti-GluA2; only the target purified

For “GluA1 (AMPA receptor subunit), endogenous (from UniProt P19490 19-907)”, the binding [1] was “binds” and the binding (GST-endophilin2) was “binds”.

“GluA2 (AMPA receptor subunit), endogenous (from UniProt P19491 22-883)” was tested, and the binding (GST-endophilin2) was “no binding”.
